# Test results: the supplement of paper PMC7024190
# Structures can show the parent of a compound that is named as a salt. The list shows a part of the results. Repeats in this data set agree poorly, so a single value says little.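 Human embryonic kidney cells were transiently transfected with a plasmid bearing a Renilla luciferase gene under the HSV-TK promoter. This first-round screen tests roughly ten thousand compounds for ones that increase reporter output.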
# System: HEK 293FT
# Assay: log relative Renilla luciferase luminescence (reporter expression vs reference, reference not stated) (log (base not stated)); higher = higher recombinant reporter expression
# Conditions: 10 µM; time after transfection 48 h
row,SMILES,log
1,CN1[C@@H]2CC[C@H]1C[C@@H](OC(=O)c1c[nH]c3ccccc13)C2 [tropisetron hydrochloride],-0.00296
2,Cc1cccc(C)c1OCC(C)N (stereo not given) [mexiletine hydrochloride],0.134
3,COc1ccc(/C=C/C(=O)Nc2ccccc2C(=O)O)cc1OC [tranilast],0.0457
4,CC(=O)N1CCCC1C(=O)O (stereo not given) [n-acetylproline],-0.0274
5,CCOC(=O)C1=C(COCCN)NC(C)=C(C(=O)OC)C1c1ccccc1Cl (stereo not given) [amlodipine besylate],0.0166
6,Oc1ccc(/C=C/c2cc(O)cc(O)c2)cc1 [resveratrol],-0.333
7,CC1(C)C2CCC1(C)C(O)C2 (stereo not given) [borneol],0.0192
8,Oc1c(Cl)cc(Cl)c(Cl)c1Cc1c(O)c(Cl)cc(Cl)c1Cl [hexachlorophene],0.215
9,Cc1c(N(C)C)c(=O)n(-c2ccccc2)n1C [aminopyrine],-1.3
10,CCN(CC)CCNC(=O)c1cc(Cl)c(N)cc1OC [metoclopramide hydrochloride],0.138
11,"COc1ccc(-c2oc3cc(OC)c(OC)c(OC)c3c(=O)c2OC)cc1 [3,4',5,6,7-pentamethoxyflavone]",0.33
12,NCCCNCCCCNCCCN [spermine],0.0906
13,CC(C)(CO)C(O)C(=O)NCCCO (stereo not drawn) [panthenol (dl)],-0.0569
14,CCOc1ccc2ccccc2c1C(=O)N[C@@H]1C(=O)N2[C@@H]1SC(C)(C)[C@@H]2C(=O)O [nafcillin sodium],0.0837
15,Cn1cnc2c1c(=O)[nH]c(=O)n2C [theobromine],0.192
16,CC1=NN(c2ccccc2)C(=O)C1 [edaravone],0.0552
17,C[n+]1c2cc(N)ccc2cc2ccc(N)cc21 [acriflavinium hydrochloride],-0.59
18,O=C(N[C@H](CO)[C@H](O)c1ccc([N+](=O)[O-])cc1)C(Cl)Cl [chloramphenicol],-0.151
19,O=C(O)CCNC(=O)c1ccccc1 [betamipron],0.0382
20,CCC[C@@H]1C[C@@H](C(=O)N[C@@H]([C@H]2O[C@H](SC)[C@H](O)[C@@H](O)[C@H]2O)[C@H](C)Cl)N(C)C1 [clindamycin hydrochloride],-0.0491
21,COC(=O)C(Cc1ccccc1)NC(=O)/C(=C1/OC(=O)C(c2ccccc2)=C1O)c1ccccc1 (stereo not given) [rhizocarpic acid],-0.0912
22,CN(C)CCC=C1c2ccccc2COc2ccccc21 [doxepin hydrochloride],-0.223
23,CC(C)[N+](C)(CCOC(=O)C1c2ccccc2Oc2ccccc21)C(C)C [propantheline bromide],-0.0604
24,CN1CCC[C@@H]1Cc1c[nH]c2ccc(CCS(=O)(=O)c3ccccc3)cc12 [eletriptan hydrobromide],0.0116

row,SMILES,log
1,Nc1ccccc1S(N)(=O)=O [2-aminobenzenesulfonamide],0.0464
2,CC1=CC(=O)C(C(C)C)=CC1=O [thymoquinone],0.00551
3,OCc1cccnc1 [nicotinyl alcohol tartrate],0.0534
4,O=Cc1ccccc1O[C@@H]1O[C@H](CO)[C@@H](O)[C@H](O)[C@H]1O [helicin],0.053
5,NS(=O)(=O)c1cc2c(cc1Cl)NC(C(Cl)Cl)NS2(=O)=O (stereo not given) [trichlormethiazide],-0.178
6,CN[C@@H]1[C@H](O)[C@H](NC)[C@H]2O[C@@]3(O)C(=O)C[C@@H](C)O[C@H]3O[C@@H]2[C@H]1O [spectinomycin hydrochloride],0.106
7,CN[C@H](CC(=O)O)C(=O)O [n-methyl-d-aspartic acid (nmda)],0.165
8,Cc1onc(-c2ccccc2Cl)c1C(=O)N[C@@H]1C(=O)N2[C@@H]1SC(C)(C)[C@@H]2C(=O)O [cloxacillin sodium],-0.12
9,CC12CCC(CC1=O)C2(C)C (stereo not given) [camphor (1r)],-0.0201
10,C[C@@H]1NC(=O)[C@@H](N)CNC(=O)[C@H](C2CCNC(=N)N2)NC(=O)/C(=C/NC(N)=O)NC(=O)[C@H](CNC(=O)CC(N)CCCN)NC1=O.N=C1NCC[C@H]([C@@H]2NC(=O)/C(=C/NC(N)=O)NC(=O)[C@H](CNC(=O)C[C@@H](N)CCCN)NC(=O)[C@H](CO)NC(=O)[C@@H](N)CNC2=O)N1 [capreomycin sulfate],-0.000473
11,CN[C@@H]1[C@@H](O[C@H]2O[C@H](CO)[C@@H](N)[C@H](O)[C@H]2O)OC2C[C@@H](N)[C@@H](O[C@H]3[C@H](O)[C@@H](O)[C@H](N)C[C@@H]3N)OC2[C@@H]1O (stereo not given in full) [apramycin sulfate],-0.00296
12,CC1(C)O[C@H]2CC(=O)OC[C@]23[C@H]2CC[C@@]4(C)[C@H](c5ccoc5)OC(=O)[C@H]5O[C@]54[C@]2(C)C(=O)C[C@@H]13 [limonin],-0.601
13,CC(=O)Oc1cc(OC(C)=O)c2c(c1)O[C@H](c1ccc(OC(C)=O)c(OC(C)=O)c1)[C@@H](OC(C)=O)C2 [catechin pentaacetate],0.101
14,CCCCCCOC(=O)NC(=N)c1ccc(NCc2nc3cc(C(=O)N(CCC(=O)OCC)c4ccccn4)ccc3n2C)cc1 [dabigatran etexilate mesylate],-0.0801
15,CC(C)CCC[C@@H](C)[C@H]1CC[C@H]2[C@@H]3CC(=O)[C@H]4C[C@@H](O)CC[C@]4(C)[C@H]3CC[C@]12C [5alpha-cholestan-3beta-ol-6-one],0.0583
16,NCCCC(=O)O [gamma-aminobutyric acid],-1.28
17,CCCCCCCCCCCCCCCCCCCCCCO [docosanol],-0.075
18,COc1ccc(O)cc1 [mequinol],-0.0195
19,CC(=O)NC(Cc1ccccc1)C(=O)O (stereo not given) [afalanine],0.0919
20,O=C1/C(=C/c2cccs2)CCC/C1=C\c1cccs1 [tenylidone],0.066
21,C=CC(C1=CC(=O)C(OC)=CC1=O)c1ccccc1 (stereo not given) [4-methoxydalbergione],0.121
22,C[C@H]1c2cccc(O)c2C(=O)C2=C(O)[C@]3(O)C(=O)C(C(N)=O)=C(O)[C@@H](N(C)C)[C@@H]3[C@@H](O)[C@@H]21 [doxycycline hydrochloride],-0.144
23,Clc1ccc(C(Cn2ccnc2)OCc2ccsc2Cl)c(Cl)c1 (stereo not given) [tioconazole],0.0192
24,C[C@](N)(Cc1ccc(O)c(O)c1)C(=O)O [methyldopa],0.0773

# Among those listed so far, these have a thiophene ring, fused or not:
row,SMILES,log
20,O=C1/C(=C/c2cccs2)CCC/C1=C\c1cccs1 [tenylidone],0.066
23,Clc1ccc(C(Cn2ccnc2)OCc2ccsc2Cl)c(Cl)c1 (stereo not given) [tioconazole],0.0192

# Next part:

row,SMILES,log
1,O=C(O)C(=O)O.[NH-][C@@H]1CCCC[C@H]1[NH-].[Pt+2] [oxaliplatin],-0.0488
2,Cc1ccc(NC(=O)c2ccc(CN3CCN(C)CC3)cc2)cc1Nc1nccc(-c2cccnc2)n1 [imatinib],0.0623
3,CCOC(=O)COc1ccc2c(=O)cc(-c3ccccc3)oc2c1 [efloxate],0.0766
4,COc1c(CC(=O)c2cc3c(cc2O)OC(C)(C)C(O)C3)ccc2c1C=CC(C)(C)O2 (stereo not given) [dihydromunduletone],-0.0702
5,O=C(O)c1cn(C2CC2)c2cc(N3CCNCC3)c(F)cc2c1=O [ciprofloxacin],0.192
6,"COc1ccc(/C=C/C(=O)c2ccc(O)cc2O)cc1 [2',4'-dihydroxy-4-methoxychalcone]",0.164
7,CCOc1nc2cccc(C(=O)OCc3oc(=O)oc3C)c2n1Cc1ccc(-c2ccccc2-c2noc(=O)[nH]2)cc1 [azilsartan kamedoxomil],-0.0419
8,C#CCN[C@@H]1CCc2ccccc21 [rasagiline],-0.108
9,Cn1c(=O)[nH]c2ncn(C)c2c1=O [paraxanthine],-0.104
10,Cc1cc(C(C)(C)C)c(O)c(C(C)(C)C)c1 [butylated hydroxytoluene],0.0427
11,"COc1ccc2c(c1)OCC(Cc1ccc(OC)c(O)c1)C2=O (stereo not given) [deoxysappanone b 7,4'-dimethyl ether]",0.217
12,C=CCSSSCC=C [diallyl trisulfide],-0.068
13,O=C(O)C1CC([C@@H]2CCCCN2)CN2CCCCC12 (stereo not given in full) [aphyllic acid],0.0522
14,COc1cc(C(=O)NCc2ccc(OCCN(C)C)cc2)cc(OC)c1OC [trimethobenzamide hydrochloride],-0.0295
15,C[C@@H]1CC[C@H]2[C@](C)(CO)[C@@H](O)CC[C@]2(C)[C@@]12CC[C@@](CO)(CCO)O2 [lagochilin],-0.0396
16,CCC/C=C\C=C/C(=O)N[C@@H](CC(N)=O)C(=O)NC(CC(N)=O)C(=O)N[C@@H](C(=O)N[C@H](CCCN)C(=O)N[C@@H](C(=O)N[C@@H](C(=O)N[C@@H](C(=O)N[C@H](C(=O)N[C@@H](Cc1ccccc1)C(=O)N[C@H](CCCN)C(=O)NC(C(=O)N[C@H](C(=O)NC(C(=O)NCC(=O)N[C@@H](CC(C)C)C(=O)N[C@H](C)C(=O)NC(C(=O)O)C1CCC(O)C(Cl)C1)C1CCC(O)CC1)[C@H](C)O)C1CCC(O)CC1)[C@H](C)O)C1CCC(O)CC1)C1CCC(O)CC1)[C@H](C)O)C1CCC(O)CC1 (stereo not given in full) [ramoplanin [a2 shown; 2mm]],0.0105
17,C1CCC(C(CC2CCCCN2)C2CCCCC2)CC1 (stereo not given) [perhexiline maleate],0.0746
18,CN1CC(=O)N2[C@H](c3ccc4c(c3)OCO4)c3[nH]c4ccccc4c3C[C@@H]2C1=O [tadalafil],0.14
19,CC(=O)[C@@]1(O)CC[C@H]2[C@@H]3C[C@H](C)C4=CC(=O)C=C[C@]4(C)[C@@]3(F)[C@@H](O)C[C@@]21C [fluorometholone],0.0637
20,CCc1nc(N)nc(N)c1-c1ccc(Cl)cc1 [pyrimethamine],0.0583
21,C[C@@H]1C[C@H]2[C@@H]3CCC4=CC(=O)C=C[C@]4(C)[C@@]3(Cl)[C@@H](O)C[C@]2(C)[C@@]1(OC(=O)c1ccco1)C(=O)CCl [mometasone furoate],-0.442
22,c1coc(CNc2ncnc3[nH]cnc23)c1 [kinetin],0.123

# Two entries from above, as tab-separated lines.
row	SMILES	log
5	NS(=O)(=O)c1cc2c(cc1Cl)NC(C(Cl)Cl)NS2(=O)=O (stereo not given) [trichlormethiazide]	-0.178
18	CN1CC(=O)N2[C@H](c3ccc4c(c3)OCO4)c3[nH]c4ccccc4c3C[C@@H]2C1=O [tadalafil]	0.14
